For test [1], the target named is PTEN_KR (human) (UniProt P60484). Kind of test: holdup assay; biotinylated PBM peptide on streptavidin resin, biotin resin as reference; tag-PDZ at 4 uM in crude E. coli lysate, 15 min, filtrate read by capillary electrophoresis; singlicate; BI converted into KD with the mean peptide concentration back-calculated from FP (34, 28, 25, 17 uM); LogKD is -log10 of KD in M, overall uncertainty ± 0.12; cells at the column's lower value are pairs without detected binding; only the target purified.

By UniProt entry, the sequences of proteins in these tests, tags left out. Where a name states a change or a piece, a line headed by the entry shows the natural chain unless it says otherwise. Residues count along the entry.
UniProt P60484: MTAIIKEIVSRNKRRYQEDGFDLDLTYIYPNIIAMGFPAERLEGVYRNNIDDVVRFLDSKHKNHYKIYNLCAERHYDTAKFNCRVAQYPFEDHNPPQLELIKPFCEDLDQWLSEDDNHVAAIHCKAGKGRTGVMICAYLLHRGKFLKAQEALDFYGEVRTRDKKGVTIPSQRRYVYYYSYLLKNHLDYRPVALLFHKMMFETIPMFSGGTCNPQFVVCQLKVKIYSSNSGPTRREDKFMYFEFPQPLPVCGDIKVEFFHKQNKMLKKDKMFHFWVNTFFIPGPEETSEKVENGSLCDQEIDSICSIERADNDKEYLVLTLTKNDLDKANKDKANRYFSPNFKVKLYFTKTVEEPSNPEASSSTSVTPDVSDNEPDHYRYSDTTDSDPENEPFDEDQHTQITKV
UniProt A4D2P6, residues 3-84: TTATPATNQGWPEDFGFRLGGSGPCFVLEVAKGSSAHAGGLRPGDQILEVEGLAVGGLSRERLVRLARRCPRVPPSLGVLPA
UniProt Q8TEW0, residues 461-546: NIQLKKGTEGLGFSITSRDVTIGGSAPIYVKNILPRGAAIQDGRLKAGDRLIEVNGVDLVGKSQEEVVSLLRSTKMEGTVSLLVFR
MAGI1-1 (Q96QZ7, residues 17-105): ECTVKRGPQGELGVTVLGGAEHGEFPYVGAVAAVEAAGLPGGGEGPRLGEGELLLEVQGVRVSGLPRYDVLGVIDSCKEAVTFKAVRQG
MAGI1-2 (Q96QZ7, residues 472-554): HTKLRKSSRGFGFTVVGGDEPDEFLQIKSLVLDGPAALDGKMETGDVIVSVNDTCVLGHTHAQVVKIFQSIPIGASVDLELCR
MAGI1-4 (Q96QZ7, residues 813-895): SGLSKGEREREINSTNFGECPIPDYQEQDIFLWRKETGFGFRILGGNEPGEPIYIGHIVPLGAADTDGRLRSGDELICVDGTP
MAGI1-6 (Q96QZ7, residues 1124-1206): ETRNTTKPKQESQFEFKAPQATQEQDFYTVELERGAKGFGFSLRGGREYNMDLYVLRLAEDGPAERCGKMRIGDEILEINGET
PARD3B-2 (Q8TEW8, residues 383-468): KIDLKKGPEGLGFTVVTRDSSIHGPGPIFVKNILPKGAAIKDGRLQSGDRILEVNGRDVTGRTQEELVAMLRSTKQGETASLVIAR
PARD3B-3 (Q8TEW8, residues 498-585): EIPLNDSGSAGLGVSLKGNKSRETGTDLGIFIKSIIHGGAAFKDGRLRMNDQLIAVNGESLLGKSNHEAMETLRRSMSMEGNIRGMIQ
GRIP2-1 (Q9C0E4, residues 48-131): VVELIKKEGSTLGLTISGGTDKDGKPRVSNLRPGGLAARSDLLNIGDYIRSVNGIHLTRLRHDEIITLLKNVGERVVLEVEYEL
GRIP2-2 (Q9C0E4, residues 148-234): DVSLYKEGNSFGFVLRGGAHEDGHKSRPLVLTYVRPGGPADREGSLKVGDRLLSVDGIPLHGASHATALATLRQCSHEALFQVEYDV
GRIP2-3 (Q9C0E4, residues 248-332): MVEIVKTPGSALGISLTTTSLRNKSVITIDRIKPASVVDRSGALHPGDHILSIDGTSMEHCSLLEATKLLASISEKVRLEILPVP
GRIP2-4 (Q9C0E4, residues 456-545): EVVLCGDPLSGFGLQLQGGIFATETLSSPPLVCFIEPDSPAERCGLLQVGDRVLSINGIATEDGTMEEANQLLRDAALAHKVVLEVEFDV
GRIP2-5 (Q9C0E4, residues 557-641): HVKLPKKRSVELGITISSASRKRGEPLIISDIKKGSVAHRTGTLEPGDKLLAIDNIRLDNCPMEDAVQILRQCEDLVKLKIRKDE
GRIP2-6 (Q9C0E4, residues 656-738): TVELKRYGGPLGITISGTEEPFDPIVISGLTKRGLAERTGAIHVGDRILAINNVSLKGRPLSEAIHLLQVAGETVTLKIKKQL
GRIP2-7 (Q9C0E4, residues 941-1023): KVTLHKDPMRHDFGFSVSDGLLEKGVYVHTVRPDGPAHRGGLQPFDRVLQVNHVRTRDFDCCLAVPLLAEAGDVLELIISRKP
UniProt Q9Y3R0, residues 673-755: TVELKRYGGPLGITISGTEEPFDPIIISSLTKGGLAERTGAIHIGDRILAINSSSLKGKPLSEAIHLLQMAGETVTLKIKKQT

The target of test [2] is PTEN_13 (human) (UniProt P60484). Described as above.
The target in test [3] is PTEN_11 (human) (UniProt P60484). Described as above.
Test [4] addresses PTEN_Ac (human) (UniProt P60484). Described as above.
The target in test [5] is PTEN_KR (human) (UniProt P60484). The test is described as follows: holdup assay; biotinylated PBM peptide saturating streptavidin resin (biotin resin as reference); tag-PDZ at 4 uM in crude E. coli lysate, 15 min, filtration, free tag-PDZ by capillary electrophoresis; singlicate; BI cut-off 0.20; BI converted into KD with the peptide concentration back-calculated from FP; only the target purified.

Test [6] concerns the target PTEN_13 (human) (UniProt P60484). Described as above.
Test [7] addresses PTEN_11 (human) (UniProt P60484). The description is as above.
The target of test [8] is PTEN_Ac (human) (UniProt P60484). The test is described as above.

In PMC7774954, “Interactomic affinity profiling by holdup assay: Acetylation and distal residues impact the PDZome-binding specificity of PTEN phosphatase” (PLoS ONE, 2020) one finds binding data, which are given here for 16 substances.

These are yes or no findings as the source states them, for the method shown.

On to “GRID2IP-1 (from UniProt A4D2P6 3-84) (domain or fragment)”, for which the binding entry in test [1], in test [2], in test [3] and in test [4] was “no binding (tested: lower value)” throughout.

Take “PARD3-2 (from UniProt Q8TEW0 461-546) (domain or fragment)”: the binding result in test [2] and in test [4] was “no binding (tested: lower value)” each time.

In the case of “MAGI1-2 (from UniProt Q96QZ7 472-554) (domain or fragment)”, the binding entry in test [5], in test [6], in test [7] and in test [8] was “no binding (tested: BI cut-off 0.20)” in each case.

As for “PARD3B-3 (from UniProt Q8TEW8 498-585) (domain or fragment)”, the binding result in test [1], in test [3] and in test [4] was “no binding (tested: lower value)” each time.

Turning to “MAGI1-6 (from UniProt Q96QZ7 1124-1206) (domain or fragment)”, the binding result in test [1], in test [2], in test [3] and in test [4] was “no binding (tested: lower value)” each time.

Take “GRIP2-7 (from UniProt Q9C0E4 941-1023) (domain or fragment)”: the binding entry in test [1], in test [2], in test [3] and in test [4] was “no binding (tested: lower value)” throughout.

For the substance “PARD3B-2 (from UniProt Q8TEW8 383-468) (domain or fragment)”, the binding result in test [1], in test [2], in test [3] and in test [4] was “no binding (tested: lower value)” throughout.

Consider “GRIP2-6 (from UniProt Q9C0E4 656-738) (domain or fragment)”, for which the binding result in test [2] and in test [4] was “no binding (tested: lower value)” in each case.

Turning to “GRIP2-5 (from UniProt Q9C0E4 557-641) (domain or fragment)”, the binding entry in test [1], in test [2], in test [3] and in test [4] was “no binding (tested: lower value)” each time.

As to “GRIP2-4 (from UniProt Q9C0E4 456-545) (domain or fragment)”, the binding result in test [1], in test [2] and in test [3] was “no binding (tested: lower value)” in each case.

On to “GRIP2-1 (from UniProt Q9C0E4 48-131) (domain or fragment)”, for which the binding result in test [1], in test [2], in test [3] and in test [4] was “no binding (tested: lower value)” throughout.

Turning to “GRIP1-6 (from UniProt Q9Y3R0 673-755) (domain or fragment)”, the binding entry in test [1], in test [2], in test [3] and in test [4] was “no binding (tested: lower value)” each time.

Regarding “MAGI1-1 (from UniProt Q96QZ7 17-105) (domain or fragment)”, the binding entry in test [1], in test [2], in test [3] and in test [4] was “no binding (tested: lower value)” in each case.

Take “MAGI1-4 (from UniProt Q96QZ7 813-895) (domain or fragment)”: the binding result in test [2] was “no binding (tested: lower value)”.

Regarding “GRIP2-3 (from UniProt Q9C0E4 248-332) (domain or fragment)”, the binding result in test [1], in test [2], in test [3] and in test [4] was “no binding (tested: lower value)” each time.

Take “GRIP2-2 (from UniProt Q9C0E4 148-234) (domain or fragment)”: the binding entry in test [2] is reported as “no binding (tested: lower value)”.
